Reference: publication PMC5325215
These are yes or no findings as the source states them, for the method shown. In cells and extracts the contact can be indirect. Binding can be weak; no strength is given. Sequences can lack the tags named with a protein.

Molecular target: T1, FILIP d872-1111 (3 x FLAG tagged) (rat) (UniProt Q8K4T4)
T1 sequence: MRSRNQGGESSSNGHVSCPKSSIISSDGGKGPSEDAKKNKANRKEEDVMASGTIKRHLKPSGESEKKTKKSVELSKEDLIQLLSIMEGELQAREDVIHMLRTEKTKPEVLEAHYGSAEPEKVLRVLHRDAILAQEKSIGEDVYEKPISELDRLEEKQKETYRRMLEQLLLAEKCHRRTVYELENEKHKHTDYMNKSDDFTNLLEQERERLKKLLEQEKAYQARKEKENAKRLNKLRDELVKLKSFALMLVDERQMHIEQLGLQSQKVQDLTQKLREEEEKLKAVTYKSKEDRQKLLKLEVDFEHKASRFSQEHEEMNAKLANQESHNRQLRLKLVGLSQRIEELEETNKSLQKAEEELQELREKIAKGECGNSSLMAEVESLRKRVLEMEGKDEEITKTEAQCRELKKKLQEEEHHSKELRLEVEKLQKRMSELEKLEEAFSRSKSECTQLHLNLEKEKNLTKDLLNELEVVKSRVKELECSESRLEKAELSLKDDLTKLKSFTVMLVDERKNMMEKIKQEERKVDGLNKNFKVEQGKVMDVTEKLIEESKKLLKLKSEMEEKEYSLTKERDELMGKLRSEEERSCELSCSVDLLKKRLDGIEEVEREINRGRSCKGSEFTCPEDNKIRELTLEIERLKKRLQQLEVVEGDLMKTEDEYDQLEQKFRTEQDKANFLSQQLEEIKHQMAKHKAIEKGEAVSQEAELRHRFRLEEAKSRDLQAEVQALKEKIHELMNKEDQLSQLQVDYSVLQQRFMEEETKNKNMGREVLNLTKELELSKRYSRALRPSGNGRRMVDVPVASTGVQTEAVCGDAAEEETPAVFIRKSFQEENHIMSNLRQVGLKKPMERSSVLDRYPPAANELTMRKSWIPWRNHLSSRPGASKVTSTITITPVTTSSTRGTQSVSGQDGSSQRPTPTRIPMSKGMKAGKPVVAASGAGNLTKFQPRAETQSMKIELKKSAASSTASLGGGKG
Assay: co-IP; COS-7 cells transfected with FLAG-tagged FILIP or deletion mutants; immunoprecipitation with anti-FLAG M2 on Protein G Dynabeads, 4°C, 3 hours; blots with anti-Hsc70 or anti-NMHCIIb; in Fig 4E also with expression of Hsc70 or Hsc70 K71M

non-muscle myosin IIb (endogenous, COS-7 cells)
binding: binds
